Results on four molecules are retold here after PMC8184796.

By UniProt entry, the sequences of proteins in these tests, tags left out.
UniProt P51532: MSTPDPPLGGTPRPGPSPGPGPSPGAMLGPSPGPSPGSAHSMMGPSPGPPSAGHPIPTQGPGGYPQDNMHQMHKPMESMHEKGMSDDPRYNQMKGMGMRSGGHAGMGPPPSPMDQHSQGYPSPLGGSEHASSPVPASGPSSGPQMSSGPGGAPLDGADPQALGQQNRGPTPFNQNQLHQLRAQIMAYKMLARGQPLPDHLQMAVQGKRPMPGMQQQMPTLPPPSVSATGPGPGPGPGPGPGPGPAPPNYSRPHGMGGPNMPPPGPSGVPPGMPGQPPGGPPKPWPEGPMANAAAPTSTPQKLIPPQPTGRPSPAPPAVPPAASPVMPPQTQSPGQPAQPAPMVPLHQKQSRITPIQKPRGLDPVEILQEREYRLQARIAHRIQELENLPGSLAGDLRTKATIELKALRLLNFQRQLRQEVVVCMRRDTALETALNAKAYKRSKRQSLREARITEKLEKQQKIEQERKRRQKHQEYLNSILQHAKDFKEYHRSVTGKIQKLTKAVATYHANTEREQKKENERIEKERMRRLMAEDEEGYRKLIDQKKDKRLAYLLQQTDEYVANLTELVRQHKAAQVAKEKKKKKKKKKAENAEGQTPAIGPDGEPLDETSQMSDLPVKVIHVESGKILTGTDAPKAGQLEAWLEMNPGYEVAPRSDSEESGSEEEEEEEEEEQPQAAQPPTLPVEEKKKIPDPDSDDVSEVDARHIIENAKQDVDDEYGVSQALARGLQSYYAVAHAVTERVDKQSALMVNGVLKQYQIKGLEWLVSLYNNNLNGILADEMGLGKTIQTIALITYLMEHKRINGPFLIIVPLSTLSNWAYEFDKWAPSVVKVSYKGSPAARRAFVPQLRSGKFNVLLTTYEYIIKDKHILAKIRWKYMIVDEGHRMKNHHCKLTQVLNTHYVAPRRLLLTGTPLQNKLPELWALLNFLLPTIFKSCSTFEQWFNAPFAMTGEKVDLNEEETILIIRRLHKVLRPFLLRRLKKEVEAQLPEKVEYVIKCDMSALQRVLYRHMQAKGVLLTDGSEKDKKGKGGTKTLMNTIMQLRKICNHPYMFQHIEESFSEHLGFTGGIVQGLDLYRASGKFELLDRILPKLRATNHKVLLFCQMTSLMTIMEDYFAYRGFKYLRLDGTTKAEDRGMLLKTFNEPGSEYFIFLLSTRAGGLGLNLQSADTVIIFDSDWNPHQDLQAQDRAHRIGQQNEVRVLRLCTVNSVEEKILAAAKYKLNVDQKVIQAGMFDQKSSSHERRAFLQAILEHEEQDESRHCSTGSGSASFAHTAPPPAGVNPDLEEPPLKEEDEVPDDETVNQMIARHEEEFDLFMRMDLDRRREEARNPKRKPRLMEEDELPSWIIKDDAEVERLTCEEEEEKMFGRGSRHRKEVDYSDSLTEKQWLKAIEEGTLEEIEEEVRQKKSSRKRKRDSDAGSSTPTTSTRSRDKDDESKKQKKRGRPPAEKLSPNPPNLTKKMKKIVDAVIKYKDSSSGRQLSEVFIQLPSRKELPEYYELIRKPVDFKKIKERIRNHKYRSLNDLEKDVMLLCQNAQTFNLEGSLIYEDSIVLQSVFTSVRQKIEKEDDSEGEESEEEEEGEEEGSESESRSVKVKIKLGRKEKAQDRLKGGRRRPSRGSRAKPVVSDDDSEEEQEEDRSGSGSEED
UniProt Q96GM5: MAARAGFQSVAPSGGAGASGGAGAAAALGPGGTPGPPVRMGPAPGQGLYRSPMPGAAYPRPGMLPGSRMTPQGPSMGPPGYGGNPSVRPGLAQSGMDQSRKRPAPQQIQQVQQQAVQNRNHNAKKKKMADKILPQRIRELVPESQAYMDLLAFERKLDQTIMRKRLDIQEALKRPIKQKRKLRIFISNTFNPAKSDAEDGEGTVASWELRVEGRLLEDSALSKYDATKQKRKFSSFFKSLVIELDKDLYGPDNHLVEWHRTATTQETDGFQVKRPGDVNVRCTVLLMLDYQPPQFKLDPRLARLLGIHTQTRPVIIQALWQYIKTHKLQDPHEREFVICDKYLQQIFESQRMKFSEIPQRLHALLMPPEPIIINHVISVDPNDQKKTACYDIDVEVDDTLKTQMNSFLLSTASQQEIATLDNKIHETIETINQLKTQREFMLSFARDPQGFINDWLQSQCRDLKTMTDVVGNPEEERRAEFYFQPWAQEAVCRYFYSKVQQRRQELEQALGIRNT

Results are given in words; binding and its absence hold for the method and conditions named. In cells and extracts the contact can be indirect. Some entries that bind do so weakly or less than the wild type. For some of these results: Where a sequence is shown, tags or fusion partners need not be part of it.

Test [1] addresses T1, Myc/DDK tagged FBXO32 (UniProt Q969P5).
T1 sequence: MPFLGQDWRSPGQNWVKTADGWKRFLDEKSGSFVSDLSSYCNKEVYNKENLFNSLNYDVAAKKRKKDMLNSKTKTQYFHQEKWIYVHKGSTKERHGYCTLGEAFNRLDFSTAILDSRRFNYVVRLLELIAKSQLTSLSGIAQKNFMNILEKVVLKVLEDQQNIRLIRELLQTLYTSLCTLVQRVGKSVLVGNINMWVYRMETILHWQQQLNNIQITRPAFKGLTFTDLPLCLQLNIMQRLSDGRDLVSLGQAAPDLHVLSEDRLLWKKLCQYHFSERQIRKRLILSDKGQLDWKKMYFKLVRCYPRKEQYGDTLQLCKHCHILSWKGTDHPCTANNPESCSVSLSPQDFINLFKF
As to the kind of experiment: co-IP; immunoprecipitation with anti-DDK from SKmel28 cells transduced with Myc/DDK-tagged FBXO32 vector, western blot; control cells without tagged FBXO32.

Test [2] addresses BRG1 (SMARCA4) (human (endogenous in 501Mel)) (UniProt P51532). As to the kind of experiment: co-IP; endogenous proteins in 501Mel total extract; immunoprecipitated with BRG1 or control antibody; western blot with anti-BRG1 and anti-FBXO32.
The target of test [3] is SMARCA4 (BRG1) (human (endogenous in SKmel28 and 501Mel)) (UniProt P51532). As to the kind of experiment: co-IP; endogenous proteins in 501Mel cells, immunoprecipitation with anti-BRG1 antibody.

For the molecule “SMARCA4 (BRG1) (from UniProt P51532 1-1647)”, in test [1], the binding result is given as “binds”. In the case of “SMARCD1 (BAF60a) (from UniProt Q96GM5 1-515)”, the binding entry in test [1] is on record as “binds”.

B1: FBXO32 (protein, UniProt Q969P5 1-355)
chain: T1 sequence
As for B1, the binding result in test [2] was “binds”.

B2: FBXO32 (endogenous) (protein, UniProt Q969P5 1-355)
chain: T1 sequence
With B2, the binding result in test [3] was “binds”.
